From PMC4219662
No constants are given. Whether binding was seen depends on the method and setting. In cells and extracts the contact can be indirect. Here binding means that the protein was enriched with, or labelled near, the bait; the list need not be complete. For some assays here: A no says only that the protein was not detected with the bait.

Sequences of proteins named here, by UniProt entry; tags and fusion partners are left off. A change or cut given only in a name is not applied to a line headed by its entry.
UniProt E2QCH8: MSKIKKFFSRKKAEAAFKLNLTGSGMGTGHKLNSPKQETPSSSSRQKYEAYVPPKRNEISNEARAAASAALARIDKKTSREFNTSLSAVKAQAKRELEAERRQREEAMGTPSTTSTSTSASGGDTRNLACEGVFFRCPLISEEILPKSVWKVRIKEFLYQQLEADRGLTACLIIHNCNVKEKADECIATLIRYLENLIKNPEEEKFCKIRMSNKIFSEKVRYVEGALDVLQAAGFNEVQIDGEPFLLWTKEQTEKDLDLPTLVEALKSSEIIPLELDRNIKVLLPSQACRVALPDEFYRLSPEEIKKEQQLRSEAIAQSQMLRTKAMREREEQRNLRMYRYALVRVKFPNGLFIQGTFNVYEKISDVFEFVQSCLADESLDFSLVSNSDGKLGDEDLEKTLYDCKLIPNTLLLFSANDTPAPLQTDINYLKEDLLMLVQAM
UniProt P18824: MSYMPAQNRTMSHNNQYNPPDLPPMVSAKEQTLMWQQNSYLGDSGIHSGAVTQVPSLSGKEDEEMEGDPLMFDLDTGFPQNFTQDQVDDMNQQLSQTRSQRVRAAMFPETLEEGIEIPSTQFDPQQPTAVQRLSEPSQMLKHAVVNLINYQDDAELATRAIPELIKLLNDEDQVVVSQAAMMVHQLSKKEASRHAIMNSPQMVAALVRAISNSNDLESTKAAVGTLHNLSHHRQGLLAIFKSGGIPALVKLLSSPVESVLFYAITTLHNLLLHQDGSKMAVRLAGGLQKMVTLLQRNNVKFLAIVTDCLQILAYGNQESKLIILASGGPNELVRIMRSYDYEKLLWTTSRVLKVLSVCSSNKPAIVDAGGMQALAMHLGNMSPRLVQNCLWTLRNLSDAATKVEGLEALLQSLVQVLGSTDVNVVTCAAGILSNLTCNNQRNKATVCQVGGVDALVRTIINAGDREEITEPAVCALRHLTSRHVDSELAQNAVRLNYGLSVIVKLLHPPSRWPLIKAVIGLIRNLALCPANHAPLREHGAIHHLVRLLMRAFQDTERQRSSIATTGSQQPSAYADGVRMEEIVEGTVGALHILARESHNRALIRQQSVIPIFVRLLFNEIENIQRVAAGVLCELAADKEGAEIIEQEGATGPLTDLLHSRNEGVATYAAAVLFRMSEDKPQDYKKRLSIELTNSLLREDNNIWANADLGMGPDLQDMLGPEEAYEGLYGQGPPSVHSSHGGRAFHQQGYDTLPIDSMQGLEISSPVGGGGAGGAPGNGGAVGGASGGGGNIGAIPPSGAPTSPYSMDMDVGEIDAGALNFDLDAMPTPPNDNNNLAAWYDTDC
UniProt Q7KN62: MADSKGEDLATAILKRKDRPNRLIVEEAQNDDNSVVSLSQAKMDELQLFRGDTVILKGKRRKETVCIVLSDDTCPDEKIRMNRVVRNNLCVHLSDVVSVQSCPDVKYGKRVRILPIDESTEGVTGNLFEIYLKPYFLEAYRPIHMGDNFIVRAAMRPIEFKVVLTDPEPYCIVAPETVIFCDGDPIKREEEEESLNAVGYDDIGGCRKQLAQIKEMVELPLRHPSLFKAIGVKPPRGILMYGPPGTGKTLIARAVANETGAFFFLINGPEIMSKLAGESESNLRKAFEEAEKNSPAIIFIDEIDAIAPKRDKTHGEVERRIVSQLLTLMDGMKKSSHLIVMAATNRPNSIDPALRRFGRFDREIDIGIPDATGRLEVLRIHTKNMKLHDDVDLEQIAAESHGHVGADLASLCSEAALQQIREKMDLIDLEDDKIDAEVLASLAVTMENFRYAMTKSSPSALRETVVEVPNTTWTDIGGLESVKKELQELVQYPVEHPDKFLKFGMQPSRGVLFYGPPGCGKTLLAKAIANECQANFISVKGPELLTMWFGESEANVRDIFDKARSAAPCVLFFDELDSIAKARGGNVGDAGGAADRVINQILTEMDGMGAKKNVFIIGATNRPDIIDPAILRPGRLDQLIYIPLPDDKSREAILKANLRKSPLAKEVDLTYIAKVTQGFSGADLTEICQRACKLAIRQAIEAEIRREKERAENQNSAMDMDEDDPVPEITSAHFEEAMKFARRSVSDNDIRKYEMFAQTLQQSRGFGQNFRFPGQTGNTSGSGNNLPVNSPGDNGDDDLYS
UniProt P18431: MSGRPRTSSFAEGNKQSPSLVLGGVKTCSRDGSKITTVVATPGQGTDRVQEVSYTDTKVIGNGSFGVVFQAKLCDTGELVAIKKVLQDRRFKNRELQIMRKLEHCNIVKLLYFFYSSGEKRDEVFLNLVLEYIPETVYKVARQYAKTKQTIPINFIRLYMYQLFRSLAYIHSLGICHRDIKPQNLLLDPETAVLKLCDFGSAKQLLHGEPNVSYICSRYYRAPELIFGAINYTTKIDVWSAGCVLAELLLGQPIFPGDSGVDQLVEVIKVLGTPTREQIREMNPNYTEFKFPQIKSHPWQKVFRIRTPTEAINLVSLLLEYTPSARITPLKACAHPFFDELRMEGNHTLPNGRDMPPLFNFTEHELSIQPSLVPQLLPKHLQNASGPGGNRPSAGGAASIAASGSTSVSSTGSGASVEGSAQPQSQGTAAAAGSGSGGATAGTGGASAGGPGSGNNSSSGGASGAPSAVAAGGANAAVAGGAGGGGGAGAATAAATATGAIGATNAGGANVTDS

B1: Axin (protein, UniProt Q9V407 1-745)
chain: MSGHPSGIRKHDDNECSGPRPPVPGEESRVKKMTEGVADTSKNSSPSYLNWARTLNHLLEDRDGVELFKKYVEEEAPAYNDHLNFYFACEGLKQQTDPEKIKQIIGAIYRFLRKSQLSISDDLRAQIKAIKTNPEIPLSPHIFDPMQRHVEVTIRDNIYPTFLCSEMYILYIQQMSAQQERCTSSGATGSGSAGSSGSGGSSLAGACALPPTTASGKQQLPQLVPPGAFINLPVSSVSGPPAGTCSASGSVYGPSTSASSSGSISATDTLPRSSTLPTLHEDSVLSLCDDFEKVQMQEGGGSLGSGSVGAGARAPDYPIRLTRDLLIATQKRRLEIRPPGAHGYVYNPSTTNTSYVPNSRVDSERASVSSGGRTDSDTMSISSCSMDGRPYIQRRHSSTESKAIRQSAMANKETNTFQVIPRTQRLHSNEHRPLKEEELVSLLIPKLEEVKRKRDLEERARERNPGAALLTNERSSASDRAFAEAIREKFALDEDNDQDILDQHVSRVWKDQTPHRSPGTMSPCPPIPSRRRTATHDSGMVSDGAMSLSGHSMKHSKSMPDHSSCSRKLTNKWPSMNTDSGISMFSADTVTKYKDASSRSGSSTASKLEEAKRRLEDEPRRSRRYAQPPMQHLSQQPLASFSSSSSGGSISLPHQPPPLPAKPPETIVVFSFCEEPVPYRIKIPGTQPTLRQFKDYLPRRGHFRFFFKTHCEDPDSPVIQEEIVNDSDILPLFGDKAMGLVKPSD

What was measured:
[1] = biological target: Als^HA (Armless with C-terminal triple HA-tag) (Drosophila melanogaster) (UniProt E2QCH8); test: affinity purification with mass spectrometry; HA-tagged variants of Als expressed in Kc-167 cells, anti-HA affinity purification, shotgun LC-MS/MS; three independent experiments; with and without stimulation of the Wg pathway by Wg
[2] = biological target: Als^HA (Armless with C-terminal triple HA-tag) (Drosophila melanogaster) (UniProt E2QCH8); test: affinity purification with mass spectrometry; selected reaction monitoring; Als and Ter94 used as bait
[3] = biological target: Arm used as bait (Drosophila) (UniProt P18824); test: affinity purification with mass spectrometry; shotgun affinity purification mass spectrometry with Arm or Arm^S10 as bait; cytoplasm

| Molecule | binding [3] | also measured |
| --- | --- | --- |
| endogenous Ter94 (from UniProt Q7KN62 1-801) (enzyme) |  | binding [1]: binds |
| Armadillo (Arm), sought as prey (from UniProt P18824 1-843) |  | binding [2]: no binding |
| Sgg (Shaggy/GSK3β) (from UniProt P18431 1-514) (enzyme) | binds |  |
| endogenous Als (from UniProt E2QCH8) | no binding |  |
| B1 | binds |  |
